In patent publication US20060121494A1:
Results are given in words; binding and its absence hold for the method and conditions named.

Biological target: α-tubulin (human)
Assay: anti-Id2 immunoprecipitation from TIG-3 lysates, Western blot

B1: Id2 protein (endogenous, human cells) (protein)
chain: MKAFSPVRSVRKNSLSDHSLGISRSKTPVDDPMSLLYNMNDCYSKLKELVPSIPQNKKVSKMEILQHLIDYILDLQIALDSHPTIVSLHHQRPGQNQRSRTTPLTTLNTDISILSLQASEFPSELMSNDSKALCG
binding: no binding
